This is an account of results in US20260257998A1, “ERR MODULATORS” (University of Health Sciences and Pharmacy in St. Louis, priority 2023, published 2026).

Amino acid sequences for entries named in this document (tags omitted).
UniProt P62508, whole entry: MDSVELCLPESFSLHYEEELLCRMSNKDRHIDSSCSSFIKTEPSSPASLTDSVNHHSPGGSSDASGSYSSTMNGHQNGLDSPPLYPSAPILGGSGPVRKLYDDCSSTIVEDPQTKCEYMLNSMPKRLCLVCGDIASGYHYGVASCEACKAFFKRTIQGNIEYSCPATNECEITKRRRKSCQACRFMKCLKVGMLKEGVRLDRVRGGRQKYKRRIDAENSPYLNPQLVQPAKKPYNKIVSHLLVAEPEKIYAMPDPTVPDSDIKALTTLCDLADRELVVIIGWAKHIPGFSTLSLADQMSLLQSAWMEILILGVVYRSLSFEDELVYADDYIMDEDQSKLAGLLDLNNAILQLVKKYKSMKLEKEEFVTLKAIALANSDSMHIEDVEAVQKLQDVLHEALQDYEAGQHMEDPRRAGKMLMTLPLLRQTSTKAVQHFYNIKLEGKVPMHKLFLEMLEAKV
UniProt P11474, whole entry: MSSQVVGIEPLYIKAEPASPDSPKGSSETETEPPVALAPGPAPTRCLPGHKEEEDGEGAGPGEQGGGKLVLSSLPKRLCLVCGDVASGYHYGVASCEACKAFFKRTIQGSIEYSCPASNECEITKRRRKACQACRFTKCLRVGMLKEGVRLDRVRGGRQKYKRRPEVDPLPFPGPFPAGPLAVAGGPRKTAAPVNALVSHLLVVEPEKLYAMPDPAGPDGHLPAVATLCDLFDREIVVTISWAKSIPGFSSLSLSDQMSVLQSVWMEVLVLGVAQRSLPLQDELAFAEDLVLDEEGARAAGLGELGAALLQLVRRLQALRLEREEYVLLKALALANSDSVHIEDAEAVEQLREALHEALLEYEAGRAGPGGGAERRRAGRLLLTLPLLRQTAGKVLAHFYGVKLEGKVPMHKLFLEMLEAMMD

Structures are written as SMILES. The match of structure and compound is tentative.

In one assay the target is ERRγ (Homo sapiens, UniProt P62508). Nature of the assay: ERRE luciferase reporter assay in HEK293 cells transfected with pcDNA3.1 ERRγ. As to conditions: read-out: EC50 (ERRγ), 24 hours treatment, luciferase activity. On the procedure: (§1) HEK293 cells were maintained in Dulbecco's modified Eagles medium (DMEM) supplemented with 10% fetal bovine serum at 37° C. under 5% CO2. Cells were plated in 96-well plates at a density of 2.5×10^4 cells/well and transiently transfected using Lipofectamine 2000 (Invitrogen) according to manufacturer's instructions. Cells were transfected with ERRE reporter construct and pcDNA3.1 ERRα or ERRγ. Twenty-four-hours post-transfection, the cells were treated with vehicle or compound (various concentrations) for 24 hours (4 wells per dose). Luciferase activity was measured using the One-Glo Tox luciferase reporter assay system (Promega) and […] were calculated using GraphPad Prism software.
(In general: A reporter such as luciferase makes a cellular process visible.)

Another assay concerns the target ERRα (Homo sapiens, UniProt P11474). Put plainly: ERRE luciferase reporter assay in HEK293 cells transfected with pcDNA3.1 ERRα. As to conditions: 24 hours treatment, luciferase activity. On the procedure:
as §1

For orientation: EC50 means the midpoint of the concentration-response curve. Take `Oc1ccccc1C1=NNC(c2ccc(Cl)c(Cl)c2)C1` (centres unmarked): the EC50 on ERRγ was < 1000 nM. Also, the “EC50 (ERRα)” value at ERRα is given as “i.a”.
